According to the supplement of paper PMC6445147:
Values scatter widely in this assay.

B1: human tRNA-Pro; a variant is named by its letters at N, in order (parent)
chain: GGCTCGTTGGTCTAGNGGTATGATTCTCGCTTAGGGTGCGAGAGGTCCCGGGTTCNNATCCCGGACGAGCCC

Variants of: B1
Assay: tRNA 5' processing efficiency (processed reads / all reads, maximum-likelihood estimate) (fraction); higher = more efficient 5' processing
Conditions: HEK293T; construct: CMV Pol-II promoter ((+)CMV library, decapped)

Variant	tRNA 5' processing efficiency
GGCTCGTTGGTCTAAGGCTGTGATTCTCGCTTAGGGTGCGAGAGGTCCCGGGTTCACATCCCGGACGAGCCC	0.14
GGCTCGTTTGTCTAACTGTATGATTCTCGCTTAGGGTGCGAGAGGTCCCGGGGCGACATCCCGGACGAGCCC	0.5
GGCTCGTTGGTCTAAGTGTTTGATTCTCGCTTAGGGTGCGAGAGGTCCCGGGTTCACATCCCGGACGAGCCC	0.25
GGCTCGTTTGTCTAGGAGTATGATTCTCGCTTAGGGTGCGAGAGGTCCCGGGTTTACATCCCGGACGAGCCC	0.33
GGCTCGTTAGTCTCGCGGTATGATTCTCGCTTAGGGTGCGAGAGGTCCCGGGTTCACATCCCGGACGAGCCC	0.25
GGCTCGTAGGTCTGGGGTGTTGATTCTCGCTTAGGGTGCGAGAGGTCCCGGGTTCACATCCCGGACGAGCCC	0.14
GGCTCGTTTGTCTGGGGGCATGATTCTCGCTTAGGGTGCGAGAGGTCCCGGGATCACATCCCGGACGAGCCC	0.33
GGCTCGTTGGTCTAGGAGGATGATTCTCGCTTAGGGTGCGAGAGGTCCCGGGTTCACATCCCGGACGAGCCC	0.4
GGCTCGTTGGTCTAGGGACATGATTCTCGCTTAGGGTGCGAGAGGTCCCGGGTACACATCCCGGACGAGCCC	0.33
GGCTCGTCGGTCTAGGGCTATGATTCTCGCTTAGGGTGCGAGAGGTCCCGGGTCCACAGCCCGGACGAGCCC	0.17
GGCTCGTTGGTCTAGGAGTATGATTCTCGCTTAGGGTGCGAGAGGTCCCGGGCTCACATCCCGGACGAGCCC	0.33
GGCTCGTTGGTCTAGGGTTGTGATTCTCGCTTAGGGTGCGAGAGGTCCCGGGTTTACATCCCGGACGAGCCC	0.2
GGCTCGTTGGTCTAGTGGTATGATTCTCGCTTAGGGTGCGAGAGGTCCCGGGTTAACTTCCCGGACGAGCCC	0.25
GGCTCGTTGGTCTAGGTGAATGATTCTCGCTTAGGGTGCGAGAGGTCCCGGGTTCACATCCCGGACGAGCCC	0.25
GGCTCGTCGGTCTAGGGGTTTGATTCTCGCTTAGGGTGCGAGAGGTCCCGGGTTCACATCCCGGACGAGCCC	0.25
GGCTCGTTAGTCTAGGGTTATGATTCTCGCTTAGGGTGCGAGAGGTCCCGGGTCCACATCCCGGACGAGCCC	0.25
GGCTCGTTGGTCTAGGGTTATGATTCTCGCTTAGGGTGCGAGAGGTCCCGGGTTCACACCCCGGACGAGCCC	0.25
GGCTCGTGCGTCTAGGGCTATGATTCTCGCTTAGGGTGCGAGAGGTCCCGGGGTCACATCCCGGACGAGCCC	0.17
GGCTCGTTGGTCTAGGGATATGATTCTCGCTTAGGGTGCGAGAGGTCCCGGGTGCACATCCCGGACGAGCCC	0.33

For convenience, part of the list above:
Variant	tRNA 5' processing efficiency
GGCTCGTTTGTCTAACTGTATGATTCTCGCTTAGGGTGCGAGAGGTCCCGGGGCGACATCCCGGACGAGCCC	0.5
GGCTCGTTGGTCTAAGTGTTTGATTCTCGCTTAGGGTGCGAGAGGTCCCGGGTTCACATCCCGGACGAGCCC	0.25

Next entries.

Variant	tRNA 5' processing efficiency
GGCTCGTTGGTCTAGTGGTTTGATTCTCGCTTAGGGTGCGAGAGGTCCCGGGTCCACGTCCCGGACGAGCCC	0.17
GGCTCGTTGGTCTATGGGTCTGATTCTCGCTTAGGGTGCGAGAGGTCCCGGGTTCACATCCCGGACGAGCCC	0.5
GGCTCGTGTGTCTAGCGGTATGATTCTCGCTTAGGGTGCGAGAGGTCCCGGGTTGACATCCCGGACGAGCCC	0.5
GGCTCGTTGGTCTACGGACATGATTCTCGCTTAGGGTGCGAGAGGTCCCGGGTTCACATCCCGGACGAGCCC	0.29
GGCTCGTAGGTCTAAGGGTATGATTCTCGCTTAGGGTGCGAGAGGTCCCGGGTTCACATCCCGGACGAGCCC	0.4
GGCTCGTTGGTCTAGGTGTTTGATTCTCGCTTAGGGTGCGAGAGGTCCCGGGTTCACATCCCGGACGAGCCC	0.13
GGCTCGTTTGTCTAGAGGTATGATTCTCGCTTAGGGTGCGAGAGGTCCCGGGTTGACGTCCCGGACGAGCCC	0.11
GGCTCGTTTGTCTATCGGTATGATTCTCGCTTAGGGTGCGAGAGGTCCCGGGTCCACATCCCGGACGAGCCC	0.4
GGCTCGTGGGTCTATGTGTCTGATTCTCGCTTAGGGTGCGAGAGGTCCCGGGTGAACATCCCGGACGAGCCC	0.25
GGCTCGTGGGTCTAGCAGTGTGATTCTCGCTTAGGGTGCGAGAGGTCCCGGGTTCACATCCCGGACGAGCCC	0.13
GGCTCGTTTGTCTCGGGGTATGATTCTCGCTTAGGGTGCGAGAGGTCCCGGGATCACCTCCCGGACGAGCCC	0.2
GGCTCGTTGGTCTAGGGGTATGATTCTCGCTTAGGGTGCGAGAGGTCCCGGGTTAACATCCCGGACGAGCCC	0.33
GGCTCGTTGGTCTAAGCGTGTGATTCTCGCTTAGGGTGCGAGAGGTCCCGGGTTCACATCCCGGACGAGCCC	0.2
GGCTCGTTGGTCTAGTGTTATGATTCTCGCTTAGGGTGCGAGAGGTCCCGGGTTCACATCCCGGACGAGCCC	0.14
GGCTCGTAGGTCTAGGGGTATGATTCTCGCTTAGGGTGCGAGAGGTCCCGGGTTTACATCCCGGACGAGCCC	0.2
GGCTCGTTGGTCTAGGGGTTTGATTCTCGCTTAGGGTGCGAGAGGTCCCGGGGTGACATCCCGGACGAGCCC	0.2
GGCTCGTTGGTCTAGGTGTATGATTCTCGCTTAGGGTGCGAGAGGTCCCGGGTTCACTTCCCGGACGAGCCC	0.33
GGCTCGTTGGTCTAGGCGGATGATTCTCGCTTAGGGTGCGAGAGGTCCCGGGTTCACATCCCGGACGAGCCC	0.25
GGCTCGTTGGTCTAGGGTTATGATTCTCGCTTAGGGTGCGAGAGGTCCCGGGTTCACTACCCGGACGAGCCC	0.25
